Data as given in the supplement of paper PMC10735217.
Where a name gives a salt, the structure may show the parent alone. This is one part of the list. Repeats in this data set agree poorly, so a single value says little.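 Human kidney-derived cells stably carry a construct in which eight TEAD-binding elements drive luciferase, measured by luminescence in a drug-repurposing library screen. A hit is any compound whose signal exceeds the plate mean by more than five robust Z scores.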

Tested on: HEK293A TEAD-LUC reporter
Assay: TEAD-luciferase reporter activity (YAP activation), robust Z score vs plate; higher = stronger YAP/TEAD activation
Conditions: 24 h

SMILES | TEAD-luciferase reporter activity (compound concentration: 200 nM) | TEAD-luciferase reporter activity (compound concentration: 2 uM) | TEAD-luciferase reporter activity (compound concentration: 10 uM)
CS(=O)(=O)c1ccc(-c2cnc(N)c(-c3ccc(C(F)(F)F)nc3)c2)cc1 | inactive: -0.143 | inactive: -0.363 | inactive: -0.398
O=C(c1ccc(F)c(F)c1Nc1ccc(I)cc1F)N1CC(O)([C@@H]2CCCCN2)C1 [Cobimetinib] | inactive: -1.75 | inactive: -1.73 | inactive: 3.32
O=C(NO)c1cc(Br)ccc1O | inactive: -2.1 | inactive: -0.922 | inactive: 0.116
CC(=O)Oc1cc(C(F)(F)F)ccc1C(=O)O [triflusal] | inactive: 0.0901 | inactive: -0.641 | inactive: -0.414
Cc1ccc(C(=O)c2cc(O)c(O)c([N+](=O)[O-])c2)cc1 [tolcapone] | active: 5.98 | inactive: 0.233 | inactive: 0.519
CCCCCCCCCCCCCCCC(=O)NC1CC(O)C(O)NC(=O)C2C(O)C(C)CN2C(=O)C(C(O)CC(N)=O)NC(=O)C(C(O)C(O)c2ccc(O)c(OS(=O)(=O)[O-])c2)NC(=O)C2CC(O)CN2C(=O)C(C(C)O)NC1=O (stereo not drawn) | inactive: -1.19 | inactive: -0.286 | inactive: 0.133
O=c1c2c([nH]c3ccccc13)[C@H](c1ccc3c(c1)CCO3)N(c1ncc(-c3ccccn3)cn1)C2 | inactive: -0.3 | inactive: 0.261 | inactive: -0.709
CCCNCCc1ccc(NS(=O)(=O)c2ccc(OC(F)(F)F)cc2)cc1 | inactive: -1.57 | inactive: -0.229 | inactive: 0.513
CCC(C)OC(=O)N1CCCCC1CCO (stereo not drawn) | inactive: 3.82 | inactive: 0.747 | inactive: 1.91
CC1(C)OC2(C)C(O)CC1CC2O (stereo not drawn) [epomediol] | inactive: 0.00556 | inactive: -0.674 | inactive: 2.85
CS(=O)(=O)c1ccc(C2=C(c3ccc(F)cc3)CCC2)cc1 | inactive: 0.0264 | inactive: 0.594 | inactive: 0.395
NCCCC[C@H](NC(=O)[C@@H](NC(=O)[C@H](Cc1c[nH]c2ccccc12)NC(=O)[C@H](CCCCN)NC(=O)[C@H](CCCCN)NC(=O)[C@H](Cc1c[nH]c2ccccc12)NC(=O)[C@H](Cc1c[nH]c2ccccc12)NC(=O)[C@H](CCCCN)NC(=O)[C@@H](N)CCCCN)C(c1ccccc1)c1ccccc1)C(N)=O | inactive: -1.3 | inactive: -0.015 | inactive: -0.419
COc1ccccc1-c1csc(Cc2nc[nH]c2C)n1 | inactive: -0.564 | inactive: -2.35 | inactive: 4.42
N#Cc1ccc(CN2CCCCC23Cc2ccccc2CNC3=O)cc1 (stereo not drawn) | inactive: 4.89 |  | active: 7.77
CC1(C)C(=O)N=C2C1=C(O)C(=O)c1ccccc12 | inactive: -0.137 | inactive: -0.846 | inactive: -0.797
O=C(O)CCC(=O)N1Cc2ccccc2CC2(CCCCN2CC2CCCC2)C1 (stereo not drawn) | inactive: -0.412 |  | inactive: 2.17
COC(=O)/C=C/C(=O)OC [Dimethyl fumarate] | inactive: 0.26 | inactive: -1.19 | inactive: 0.73
O=C(CNCC(=O)Nc1ccccc1)Nc1ccccc1 | inactive: -2.4 | inactive: -0.394 | inactive: 2.75
Oc1nc2cccc(N3CCN(Cc4cccc(-c5ccccc5)c4)CC3)c2o1 [Bifeprunox mesilate] | inactive: -0.495 | inactive: 0.923 | inactive: -1.5
Cc1nc2n(n1)C(N1CCN(C)CC1)=Nc1ccccc1C2 | inactive: 0.18 | inactive: 0.385 | inactive: 0.0647
CCc1cn(C2CC(O)C(CO)O2)c(=O)[nH]c1=O (stereo not drawn) | inactive: -0.602 | inactive: 2.76 | inactive: -1.66
C[C@H]1CN(c2c(F)cc3c(=O)c(C(=O)O)cn(C4CC4)c3c2OC(F)F)CCN1 | inactive: -1.34 | inactive: 1.94 | inactive: 0.509
O=C(O)CCc1ccccc1Oc1ccc(Cl)cc1Cl | inactive: -0.188 | inactive: -1.15 | inactive: 0.00317
O=C(Cc1ccc(-c2ccccc2)cc1)NCCN1CCCCC1 | inactive: -4 | inactive: 0.953 | inactive: 2.72
CC1CCCC2N(C)C=C(C(N)=O)C(=O)N12 (stereo not drawn) | inactive: 1.07 | inactive: -0.151 | inactive: 0.694

Three compounds already listed, arranged by SMILES length, low to high:
SMILES | TEAD-luciferase reporter activity (compound concentration: 200 nM) | TEAD-luciferase reporter activity (compound concentration: 2 uM) | TEAD-luciferase reporter activity (compound concentration: 10 uM)
O=C(CNCC(=O)Nc1ccccc1)Nc1ccccc1 | inactive: -2.4 | inactive: -0.394 | inactive: 2.75
Cc1ccc(C(=O)c2cc(O)c(O)c([N+](=O)[O-])c2)cc1 [tolcapone] | active: 5.98 | inactive: 0.233 | inactive: 0.519
O=C(c1ccc(F)c(F)c1Nc1ccc(I)cc1F)N1CC(O)([C@@H]2CCCCN2)C1 [Cobimetinib] | inactive: -1.75 | inactive: -1.73 | inactive: 3.32

(cont.)

SMILES | TEAD-luciferase reporter activity (compound concentration: 200 nM) | TEAD-luciferase reporter activity (compound concentration: 2 uM) | TEAD-luciferase reporter activity (compound concentration: 10 uM)
CC(=O)NC[C@H]1CN(c2ccc(-n3cc(C#N)cn3)c(F)c2)C(=O)O1 | inactive: -1.52 | inactive: 0.0415 | inactive: 3.5
OC1CN(CCCOCCc2ccc3sccc3c2)C1 | inactive: 0.129 | inactive: -0.256 | inactive: -0.201
COc1ccc(OC(C)C(=O)O)cc1 (stereo not drawn) | inactive: -0.846 | inactive: -1.21 | inactive: -1.4
CCC(C)C(N)C(=O)NCCN1CCOCC1 (stereo not drawn) | inactive: -0.869 | inactive: -1.8 | inactive: 0.53
CCCc1c(OCCCCc2nnn[nH]2)ccc(C(C)=O)c1O [Tomelukast] | inactive: 0.466 | inactive: -0.715 | inactive: -1.86
COc1cc(C(C)C)c(Oc2cnc(N)nc2N)cc1I | inactive: -0.43 | inactive: -0.12 | inactive: -0.15
CCCN(CCC)C(=O)C(Cc1ccc(OCCCN2CCN(C)CC2)cc1)NC(=O)c1ccc(Cl)cc1 (stereo not drawn) | inactive: -2.7 | inactive: 2.6 | inactive: 2.66
CCCCCCCCCCCCCCCC(=O)OC[C@@H](O)[C@H]1OC[C@H](O)[C@H]1O | inactive: 0.338 | inactive: 1.59 | inactive: -0.209
O=C(NC(Cc1ccc(OCc2ccc3ccc(F)cc3n2)cc1)C(=O)O)c1ccc2ccccc2n1 (stereo not drawn) | inactive: -1.83 | inactive: -0.134 | inactive: 4.63
C[C@@H]1O[C@@H](O[C@@H]2[C@@H](O)[C@H](OCCc3ccc(O)c(O)c3)O[C@H](CO)[C@H]2OC(=O)/C=C/c2ccc(O)c(O)c2)[C@H](O)[C@H](O)[C@H]1O [Verbascoside] | inactive: -0.683 | inactive: -1.09 | inactive: -0.883
CCOC(Cc1ccc(OCCN2c3ccccc3Oc3ccccc32)cc1)C(=O)O (stereo not drawn) | inactive: -0.189 | inactive: -0.0194 | inactive: 4.97
Cc1cc(=O)c(N)nn1-c1ccc(C(F)(F)F)cc1 | inactive: -0.533 | inactive: 2.72 | inactive: 0.115
C/C1=C2/[N]([Co+][CH2][C@H]3O[C@H](n4cnc5c(N)ncnc54)[C@@H](O)[C@H]3O)[C@H]([C@H](CC(N)=O)[C@@]2(C)CCC(=O)NC[C@@H](C)OP(=O)([O-])O[C@H]2[C@@H](O)[C@@H](n3cnc4cc(C)c(C)cc43)O[C@@H]2CO)[C@]2(C)N=C(/C(C)=C3N=C(/C=C4N=C1[C@@H](CCC(N)=O)C\4(C)C)[C@@H](CCC(N)=O)[C@]\3(C)CC(N)=O)[C@@H](CCC(N)=O)[C@]2(C)CC(N)=O [Coenzyme B12] | inactive: -0.742 | inactive: -2.37 | inactive: -1.4
CC(C)(C)NC(=O)c1ccccc1C[C@@H](O)[C@H](Cc1ccccc1)NC(=O)[C@@H](CS(=O)c1ccc2ccccc2c1)NS(C)(=O)=O (stereo partly drawn) | inactive: 0.091 | inactive: 0.517 | inactive: -0.384
CC(C)(C)c1nc2[nH]c(=S)[nH]c(=O)c2cc1-c1ccc(Cl)cc1 | inactive: 0.203 | inactive: -0.198 | inactive: 1.78
C[C@H](C[C@@H](Cc1ccc(-c2ccccc2)cc1)NC(=O)CCC(=O)O)C(=O)O [Sacubitrilat] | inactive: -0.48 | inactive: 0.323 | inactive: 0.661
CC(C)C[C@H](NC(=O)[C@@H](NC(=O)c1cccc(-c2ccccc2)n1)[C@@H](C)O)B(O)O [delanzomib] | inactive: 1.13 |  | inactive: 3.9
O=C(c1ccc(Cl)cc1)N1CC2(CCN(Cc3ccc(Cl)cc3)CC2)Cc2ccccc21 | inactive: 0.342 |  | inactive: 0.793
O=C(O)[C@H]1CCCN1C(=O)CCCCC(=O)N1CCC[C@@H]1C(=O)O [Miridesap] | inactive: 0.485 | inactive: -0.34 | inactive: 0.853
Cc1nc2c(OCc3ccccc3)cccn2c1CC#N | inactive: 0.807 | inactive: 1.27 | inactive: 1.5
CS(=O)(=O)Oc1ccc(OCCc2ccc(CC(C(=O)O)S(=O)(=O)CCc3ccc(O)cc3)cc2)cc1 (stereo not drawn) | inactive: -0.074 | inactive: -0.756 | inactive: 0.588
O=C(Nc1ccccn1)c1ccc2[nH]c(-c3ccc(NC(=O)C45CC6CC(CC(C6)C4)C5)cc3)nc2c1 | inactive: -1.05 | inactive: -0.512 | inactive: -0.207
N=C(N)NCCC[C@H]1NC(=O)[C@H](Cc2ccc(O)cc2)NC(=O)[C@H]2CCCN2C(=O)[C@@H]2CCCN2C(=O)[C@H](CCCCN)NC(=O)[C@H](CCCNC(N)=O)NC(=O)[C@H](Cc2ccc(O)cc2)NC(=O)[C@H]2CSSC[C@@H](NC(=O)[C@H](CCCNC(N)=O)NC1=O)C(=O)N[C@H](CCCNC(=N)N)C(=O)NCC(=O)N1CCC[C@H]1C(=O)N[C@H](CCCNC(=N)N)C(=O)N[C@H](CCCNC(=N)N)C(=O)N[C@@H](Cc1ccc3ccccc3c1)C(=O)N2 | inactive: -1.75 | inactive: -0.276 | inactive: 0.492
CC(CN1CC(=O)N(CN2CCOCC2)C(=O)C1)N1CC(=O)N(CN2CCOCC2)C(=O)C1 (stereo not drawn) | inactive: -0.725 | inactive: 3.53 | inactive: -0.144
